Test results as given in publication PMC9780223.
No constants are given. Whether binding was seen depends on the method and setting. Some results given as binding are weak or reduced against the parent protein; the word gives no strength.

Protein sequences, listed by entry. Tags and fused reporters are not part of them. Residues count along the entry.
UniProt Q13219, residues 82-1627: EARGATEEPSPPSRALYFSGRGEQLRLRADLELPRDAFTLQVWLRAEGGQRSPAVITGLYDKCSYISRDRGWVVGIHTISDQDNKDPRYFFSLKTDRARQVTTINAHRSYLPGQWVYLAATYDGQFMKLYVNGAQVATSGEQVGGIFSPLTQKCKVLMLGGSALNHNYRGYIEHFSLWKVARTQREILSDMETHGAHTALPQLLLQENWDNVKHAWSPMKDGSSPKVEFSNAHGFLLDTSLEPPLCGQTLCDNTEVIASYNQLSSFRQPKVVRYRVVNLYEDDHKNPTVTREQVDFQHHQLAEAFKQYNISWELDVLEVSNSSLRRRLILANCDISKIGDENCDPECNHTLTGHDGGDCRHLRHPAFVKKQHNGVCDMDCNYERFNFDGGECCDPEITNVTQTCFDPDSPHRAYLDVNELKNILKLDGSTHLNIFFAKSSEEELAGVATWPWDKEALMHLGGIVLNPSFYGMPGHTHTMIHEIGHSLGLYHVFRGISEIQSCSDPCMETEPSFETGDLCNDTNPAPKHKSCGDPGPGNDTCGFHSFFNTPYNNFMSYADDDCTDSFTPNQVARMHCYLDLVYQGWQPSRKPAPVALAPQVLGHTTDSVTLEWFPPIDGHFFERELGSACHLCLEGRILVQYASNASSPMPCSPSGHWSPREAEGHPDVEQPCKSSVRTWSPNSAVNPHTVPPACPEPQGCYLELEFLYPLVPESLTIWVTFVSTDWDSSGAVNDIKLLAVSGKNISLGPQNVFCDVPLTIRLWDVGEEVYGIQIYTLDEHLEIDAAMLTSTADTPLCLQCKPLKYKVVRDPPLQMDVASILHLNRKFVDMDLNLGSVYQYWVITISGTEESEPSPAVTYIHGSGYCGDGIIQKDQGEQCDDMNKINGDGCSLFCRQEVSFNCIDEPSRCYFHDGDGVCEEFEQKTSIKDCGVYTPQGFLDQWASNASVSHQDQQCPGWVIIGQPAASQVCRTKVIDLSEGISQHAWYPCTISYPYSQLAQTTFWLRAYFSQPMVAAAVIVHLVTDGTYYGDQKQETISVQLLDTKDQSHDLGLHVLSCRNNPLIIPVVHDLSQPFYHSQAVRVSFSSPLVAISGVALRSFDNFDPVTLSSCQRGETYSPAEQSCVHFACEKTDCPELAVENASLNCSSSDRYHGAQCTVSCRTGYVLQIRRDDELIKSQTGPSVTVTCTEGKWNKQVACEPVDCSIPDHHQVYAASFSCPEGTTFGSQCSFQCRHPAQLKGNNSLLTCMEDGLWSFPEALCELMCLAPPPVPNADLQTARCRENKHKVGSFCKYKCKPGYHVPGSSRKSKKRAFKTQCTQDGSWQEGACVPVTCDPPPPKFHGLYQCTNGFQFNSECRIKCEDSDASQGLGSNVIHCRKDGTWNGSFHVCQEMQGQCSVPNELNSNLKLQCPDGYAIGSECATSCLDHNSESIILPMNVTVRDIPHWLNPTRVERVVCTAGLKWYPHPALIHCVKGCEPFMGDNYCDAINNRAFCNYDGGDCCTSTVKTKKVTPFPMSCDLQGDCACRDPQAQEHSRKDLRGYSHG

Molecular target: recombinant wild-type PAPP-A, MBP-His10 tagged (human) (UniProt Q13219)
Assay: gel of covalent complexes (lanes of Supplementary Fig. S10b, c); PAPP-A WT or C1130S alone or with proMBP or STC2; kind of gel and samples not shown

recombinant wild-type PAPP-A, MBP-His10 tagged (from UniProt Q13219 82-1627) (enzyme)
binding: binds
